No constants are given. Whether binding was seen depends on the method and setting. For part of these data: Binding seen in cells or lysates may run through a third protein. Some entries that bind do so weakly or less than the wild type. Values belong to the molecule of their own block, whether it stands above or below them.
Experiments:
[1] = biological target: estrogen receptor alpha (ER) (human (endogenous in MCF-7 and ZR-75)) (UniProt P03372); assay: co-IP; endogenous proteins in MCF-7 cells, with or without ERX-11; western blotting
[2] = biological target: estrogen receptor alpha (ER) (human (endogenous in MCF-7 and ZR-75)) (UniProt P03372); assay: proximity ligation; MCF-7 cells on cover slips (quantified also in ZR-75), vehicle or 10 µM ERX-11 30 min, then 10 nM E2 30 min; Duolink in situ PLA; tamoxifen also tested
C-LgBit-PELP1 (human) = C-LgBit-PELP1 (human) (UniProt Q8IZL8); assay: split reporter; NanoBiT in living HEK-293T cells, transient transfection; DMSO or 10 µM ERX-11 2 hr, then EtOH or 10 nM E2 30 min; luminescence
C-LgBit-ESR1 (human) = C-LgBit-ESR1 (human) (UniProt P03372); assay: as above
Purified full-length ER = Purified full-length ER (UniProt P03372); assay: pull-down; competition: purified full-length ER with biotin-ERX-11 (small molecule) and E2, with or without 1 µM LXXLL peptide; avidin beads, western blot of ER; both purified
[3] = biological target: estrogen receptor alpha (ER) (human (endogenous in MCF-7 and ZR-75)) (UniProt P03372); assay: co-IP; endogenous proteins in MCF-7 cells, with or without ERX-11; western blotting; remark: listed apart in the source

Chains of the proteins cited; added tags and fusions are not shown.
UniProt P03372: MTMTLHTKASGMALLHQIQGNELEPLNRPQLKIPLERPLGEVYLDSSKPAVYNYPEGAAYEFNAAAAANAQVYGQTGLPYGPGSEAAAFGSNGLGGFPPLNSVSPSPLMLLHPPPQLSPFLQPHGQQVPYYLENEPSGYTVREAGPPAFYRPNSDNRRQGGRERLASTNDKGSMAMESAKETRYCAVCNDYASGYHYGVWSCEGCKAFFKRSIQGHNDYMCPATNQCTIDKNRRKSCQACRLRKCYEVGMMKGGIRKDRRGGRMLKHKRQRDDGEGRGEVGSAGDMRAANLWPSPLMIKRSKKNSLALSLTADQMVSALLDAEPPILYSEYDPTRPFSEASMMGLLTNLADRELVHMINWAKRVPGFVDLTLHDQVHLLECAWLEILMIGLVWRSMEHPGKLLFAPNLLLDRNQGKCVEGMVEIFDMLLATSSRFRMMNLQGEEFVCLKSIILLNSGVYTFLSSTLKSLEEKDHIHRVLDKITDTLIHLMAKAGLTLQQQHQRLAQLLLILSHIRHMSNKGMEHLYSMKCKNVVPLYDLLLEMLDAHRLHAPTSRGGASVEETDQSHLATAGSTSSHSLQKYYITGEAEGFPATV
UniProt Q8IZL8: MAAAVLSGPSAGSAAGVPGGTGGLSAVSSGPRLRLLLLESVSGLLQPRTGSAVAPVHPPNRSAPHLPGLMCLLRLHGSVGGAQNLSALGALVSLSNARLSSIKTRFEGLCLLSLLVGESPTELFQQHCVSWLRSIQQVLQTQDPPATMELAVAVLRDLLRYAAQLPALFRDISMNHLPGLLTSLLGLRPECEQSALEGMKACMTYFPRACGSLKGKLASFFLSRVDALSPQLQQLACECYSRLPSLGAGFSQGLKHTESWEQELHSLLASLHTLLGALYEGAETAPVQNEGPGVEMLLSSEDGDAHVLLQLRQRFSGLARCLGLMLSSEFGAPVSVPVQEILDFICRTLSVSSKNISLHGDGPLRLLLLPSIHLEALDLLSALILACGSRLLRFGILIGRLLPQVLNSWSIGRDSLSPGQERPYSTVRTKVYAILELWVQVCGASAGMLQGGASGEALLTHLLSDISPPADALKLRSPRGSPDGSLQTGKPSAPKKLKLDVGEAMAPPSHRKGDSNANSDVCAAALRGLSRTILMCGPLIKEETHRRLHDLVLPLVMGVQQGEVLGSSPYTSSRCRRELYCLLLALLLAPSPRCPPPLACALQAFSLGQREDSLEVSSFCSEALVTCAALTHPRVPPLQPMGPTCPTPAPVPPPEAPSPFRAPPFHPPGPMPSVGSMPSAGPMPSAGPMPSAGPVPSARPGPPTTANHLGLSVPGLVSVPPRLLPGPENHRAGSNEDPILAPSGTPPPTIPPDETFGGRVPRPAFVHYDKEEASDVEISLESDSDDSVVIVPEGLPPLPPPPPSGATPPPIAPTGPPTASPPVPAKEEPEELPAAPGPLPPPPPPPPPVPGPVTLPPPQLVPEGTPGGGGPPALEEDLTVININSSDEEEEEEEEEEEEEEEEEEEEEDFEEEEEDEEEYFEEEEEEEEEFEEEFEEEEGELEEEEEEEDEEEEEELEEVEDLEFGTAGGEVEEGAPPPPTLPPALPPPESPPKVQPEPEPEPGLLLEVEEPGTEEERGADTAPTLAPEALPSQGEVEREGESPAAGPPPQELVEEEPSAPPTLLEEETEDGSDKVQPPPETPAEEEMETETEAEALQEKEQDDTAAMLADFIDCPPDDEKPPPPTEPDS

Molecule: PELP1 (from UniProt Q8IZL8 1-1130)
binding [1]: binds
binding [2]: binds

Molecule: C-SmBit-ESR1 (from UniProt P03372 1-595) (receptor)
binding (C-LgBit-PELP1 (human)): binds

Molecule: C-SmBit-PELP1 (from UniProt Q8IZL8 1-1130)
binding (C-LgBit-ESR1 (human)): binds

B1: PELP1-3 LXXLL peptide (peptide)
peptide: SIKTRFEGLCLLSLLVGESPT
binding (Purified full-length ER): binds

B4: SRC1- LXXLL peptide (peptide)
peptide: LTARHKILHRLLQEGSPSD
binding (Purified full-length ER): binds

Now from value to molecule:

binding (Purified full-length ER): binds
B2: SRC3/AIB1- LXXLL peptide (peptide)
peptide: ESKGHKKLLQLLTCSSDDR

binding [3]: binds
B3: TIF1α (protein, UniProt O15164 1-1050)
chain: MEVAVEKAVAAAAAASAAASGGPSAAPSGENEAESRQGPDSERGGEAARLNLLDTCAVCHQNIQSRAPKLLPCLHSFCQRCLPAPQRYLMLPAPMLGSAETPPPVPAPGSPVSGSSPFATQVGVIRCPVCSQECAERHIIDNFFVKDTTEVPSSTVEKSNQVCTSCEDNAEANGFCVECVEWLCKTCIRAHQRVKFTKDHTVRQKEEVSPEAVGVTSQRPVFCPFHKKEQLKLYCETCDKLTCRDCQLLEHKEHRYQFIEEAFQNQKVIIDTLITKLMEKTKYIKFTGNQIQNRIIEVNQNQKQVEQDIKVAIFTLMVEINKKGKALLHQLESLAKDHRMKLMQQQQEVAGLSKQLEHVMHFSKWAVSSGSSTALLYSKRLITYRLRHLLRARCDASPVTNNTIQFHCDPSFWAQNIINLGSLVIEDKESQPQMPKQNPVVEQNSQPPSGLSSNQLSKFPTQISLAQLRLQHMQQQVMAQRQQVQRRPAPVGLPNPRMQGPIQQPSISHQQPPPRLINFQNHSPKPNGPVLPPHPQQLRYPPNQNIPRQAIKPNPLQMAFLAQQAIKQWQISSGQGTPSTTNSTSSTPSSPTITSAAGYDGKAFGSPMIDLSSPVGGSYNLPSLPDIDCSSTIMLDNIVRKDTNIDHGQPRPPSNRTVQSPNSSVPSPGLAGPVTMTSVHPPIRSPSASSVGSRGSSGSSSKPAGADSTHKVPVVMLEPIRIKQENSGPPENYDFPVVIVKQESDEESRPQNANYPRSILTSLLLNSSQSSTSEETVLRSDAPDSTGDQPGLHQDNSSNGKSEWLDPSQKSPLHVGETRKEDDPNEDWCAVCQNGGELLCCEKCPKVFHLSCHVPTLTNFPSGEWICTFCRDLSKPEVEYDCDAPSHNSEKKKTEGLVKLTPIDKRKCERLLLFLYCHEMSLAFQDPVPLTVPDYYKIIKNPMDLSTIKKRLQEDYSMYSKPEDFVADFRLIFQNCAEFNEPDSEVANAGIKLENYFEELLKNLYPEKRFPKPEFRNESEDNKFSDDSDDDFVQPRKKRLKSIEERQLLK

binding (Purified full-length ER): binds
B5: SRC2- LXXLL peptide (peptide)
peptide: DSKGQTKLLQLLTTKSDQM

Reference: paper PMC5548489
